# Experiments:
# Format in all cases: cell-based, mouse
# [1] = tested on: M2-10B4 marrow stromal cells; test: Alkaline phosphatase (ALP) activity assay on whole cell extracts of M2-10B4 marrow stromal cells; conditions: 22R+20S (RS); pretreatment with SC-560 10 μM, ACA 25 μM, AACOCF3 20 μM or PD98059 20 μM; 3 days
# Description: Cells: M2-10B4 mouse marrow stromal cell line obtained from American Type Culture Collection (ATCC, Rockville, Md., U.S.A.) was derived from bone marrow stromal cells of a (C57BL/6J x C3H/HeJ) Fl mouse, and support human and murine myelopoiesis in long-term cultures (as per ATCC) and have the ability to differentiate into osteoblastic and adipocytic cells. Unless specified, these cells were cultured in RPMI 1640 containing 10% heat-inactivated FBS, and supplemented with 1 mM sodium pyruvate, 100 U/ml penicillin, and 100 U/ml streptomycin (all from Irvine Scientific).
# Cells were always treated at 90% confluence. […]
# Next, a combination of 22R and 20S oxysterols (RS, 2.5 μM each) were added in the presence or absence of SC as indicated. After 3 days, ALP activity was measured as described earlier. […] (B) M2 cells were treated as described in (A) and after 10 days matrix mineralization in cultures was quantified by a ^45Ca incorporation assay as described earlier. […] After 8 days, total RNA was isolated and analyzed for osteocalcin (Osc) and […] expression by Northern blotting as previously described. […] After 3 days, ALP activity was measured as previously described. […] After 10 days, matrix mineralization in cultures was quantified using a ^45Ca incorporation assay as previously described. […]
# marrow stromal cells = test: Osteogenic differentiation of marrow stromal cells (marker not specified: ALP activity, osteocalcin mRNA, mineral formation); conditions: 22R+20S and 22S+20S; SC-560 1-20 μM; NS-398 20 μM (highest non-toxic dose)
# Description: The purpose of the study was to identify other osteogenic and anti-adipogenic oxysterols based on the chemical structure of previously identified oxysterols. The ability of such candidate oxysterol molecules to induce the formation of osteoblastic cells in cultures of marrow stromal cells (which are progenitors of osteoblastic cells that make bone) were tested. In order to assess osteogenic differentiation of cells, one or more markers of osteogenic differentiation were measured in untreated cells and cells treated with the test oxysterols. These markers included: alkaline phosphatase activity, osteocalcin mRNA expression and mineral formation in cultures of marrow stromal cells. Activation of either one or more than one marker by a single or combination oxysterols is indicative of their osteogenic property.
# M2 cells = test: Inhibition of osteogenic differentiation of M2 cells by oxidative stress (XXO, MM-LDL): blocking, protection and rescue; conditions: SC-560 20 μM with SS 2.5 μM pretreatment
# Description: RNA Isolation and Northern Blot Analysis—Total RNA was isolated using the RNA isolation kit from Stratagene (La Jolla, Calif., USA). Northern blotting and analysis of osteocalcin mRNA and 18S rRNA expression was performed as previously described (23).
# After 14 days, matrix mineralization in cultures was quantified using a ^45Ca incorporation assay.
compound,measurement,setting,value
"COc1ccc(-n2nc(C(F)(F)F)cc2-c2ccc(Cl)cc2)cc1 [SC-560, reference compound]",effect on oxysterol-induced alkaline phosphatase activity,[1],inhibited
same,inhibition of the osteogenic effects of oxysterol combinations,marrow stromal cells,significantly inhibited
same,effect of COX-1 inhibitor on SS protection against XXO and MM-LDL (alkaline phosphatase activity),M2 cells,no longer protected

# From patent US20090220562A1, “Osteogenic and anti-adipogenic oxysterols” (priority 2005, published 2009)
